Experimental findings from article doi:10.1101/2021.05.19.444448 are described below.

Amino acid sequences for entries named in this document (tags omitted). Residues count along the entry.
UniProt P34932: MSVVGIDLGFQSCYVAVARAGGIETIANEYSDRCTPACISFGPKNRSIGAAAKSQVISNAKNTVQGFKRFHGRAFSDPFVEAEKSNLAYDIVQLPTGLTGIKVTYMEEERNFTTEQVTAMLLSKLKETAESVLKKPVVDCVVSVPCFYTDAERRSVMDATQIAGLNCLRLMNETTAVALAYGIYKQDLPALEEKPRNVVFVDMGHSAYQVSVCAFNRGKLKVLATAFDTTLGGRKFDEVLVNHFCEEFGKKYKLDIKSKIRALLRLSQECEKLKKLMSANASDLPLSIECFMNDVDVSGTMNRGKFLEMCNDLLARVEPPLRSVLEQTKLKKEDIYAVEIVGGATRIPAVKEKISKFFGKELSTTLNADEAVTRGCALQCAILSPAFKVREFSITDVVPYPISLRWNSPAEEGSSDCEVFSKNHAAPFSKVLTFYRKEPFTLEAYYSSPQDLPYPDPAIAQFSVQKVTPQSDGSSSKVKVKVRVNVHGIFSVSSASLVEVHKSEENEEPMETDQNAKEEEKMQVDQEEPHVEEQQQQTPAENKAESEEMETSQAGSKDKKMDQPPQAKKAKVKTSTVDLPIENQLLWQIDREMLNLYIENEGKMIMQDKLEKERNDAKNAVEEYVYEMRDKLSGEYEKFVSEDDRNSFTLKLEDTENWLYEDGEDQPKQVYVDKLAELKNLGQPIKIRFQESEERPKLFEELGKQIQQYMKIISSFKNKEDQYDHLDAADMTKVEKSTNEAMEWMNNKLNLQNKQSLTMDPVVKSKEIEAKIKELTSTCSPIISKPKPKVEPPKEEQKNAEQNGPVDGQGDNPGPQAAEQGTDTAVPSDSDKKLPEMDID
UniProt O95757: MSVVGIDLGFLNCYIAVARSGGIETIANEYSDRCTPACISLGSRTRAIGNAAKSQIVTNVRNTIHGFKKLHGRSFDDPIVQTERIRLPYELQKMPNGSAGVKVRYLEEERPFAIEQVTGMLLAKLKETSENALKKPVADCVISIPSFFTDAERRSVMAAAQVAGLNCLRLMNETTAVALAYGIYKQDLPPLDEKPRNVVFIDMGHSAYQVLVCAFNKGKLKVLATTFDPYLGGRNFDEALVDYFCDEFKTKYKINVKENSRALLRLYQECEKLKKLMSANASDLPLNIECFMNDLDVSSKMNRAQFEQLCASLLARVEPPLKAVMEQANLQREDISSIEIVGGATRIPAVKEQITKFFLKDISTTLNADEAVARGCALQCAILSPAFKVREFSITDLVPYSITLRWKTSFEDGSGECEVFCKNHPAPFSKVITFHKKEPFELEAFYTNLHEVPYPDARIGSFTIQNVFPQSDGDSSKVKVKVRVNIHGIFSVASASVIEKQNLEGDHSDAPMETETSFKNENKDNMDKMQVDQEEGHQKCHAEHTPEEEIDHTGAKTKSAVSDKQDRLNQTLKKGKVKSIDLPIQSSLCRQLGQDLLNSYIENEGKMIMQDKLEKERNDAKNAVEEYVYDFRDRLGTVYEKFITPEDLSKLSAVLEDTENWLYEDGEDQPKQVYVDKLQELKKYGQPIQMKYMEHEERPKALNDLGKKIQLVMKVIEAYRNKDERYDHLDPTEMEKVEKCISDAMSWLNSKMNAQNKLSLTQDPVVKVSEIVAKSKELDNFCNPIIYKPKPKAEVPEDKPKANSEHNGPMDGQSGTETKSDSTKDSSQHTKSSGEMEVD
UniProt P11021, residues 19-654: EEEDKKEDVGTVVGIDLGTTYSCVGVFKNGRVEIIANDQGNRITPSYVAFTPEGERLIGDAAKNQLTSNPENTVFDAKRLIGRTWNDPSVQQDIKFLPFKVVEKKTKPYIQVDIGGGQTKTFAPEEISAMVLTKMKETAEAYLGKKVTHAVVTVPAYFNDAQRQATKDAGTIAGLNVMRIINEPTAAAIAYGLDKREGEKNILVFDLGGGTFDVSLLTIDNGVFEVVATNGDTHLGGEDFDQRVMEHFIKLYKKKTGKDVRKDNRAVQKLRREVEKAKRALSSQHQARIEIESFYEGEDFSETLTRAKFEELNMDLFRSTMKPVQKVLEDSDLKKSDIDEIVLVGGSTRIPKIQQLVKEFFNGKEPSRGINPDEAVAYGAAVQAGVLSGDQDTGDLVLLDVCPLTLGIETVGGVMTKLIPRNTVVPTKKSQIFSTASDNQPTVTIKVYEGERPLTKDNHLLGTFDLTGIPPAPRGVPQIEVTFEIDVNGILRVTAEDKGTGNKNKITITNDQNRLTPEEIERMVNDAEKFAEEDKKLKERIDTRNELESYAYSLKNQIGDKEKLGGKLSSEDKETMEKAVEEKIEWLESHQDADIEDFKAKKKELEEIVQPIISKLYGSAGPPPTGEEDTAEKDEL
UniProt P11142: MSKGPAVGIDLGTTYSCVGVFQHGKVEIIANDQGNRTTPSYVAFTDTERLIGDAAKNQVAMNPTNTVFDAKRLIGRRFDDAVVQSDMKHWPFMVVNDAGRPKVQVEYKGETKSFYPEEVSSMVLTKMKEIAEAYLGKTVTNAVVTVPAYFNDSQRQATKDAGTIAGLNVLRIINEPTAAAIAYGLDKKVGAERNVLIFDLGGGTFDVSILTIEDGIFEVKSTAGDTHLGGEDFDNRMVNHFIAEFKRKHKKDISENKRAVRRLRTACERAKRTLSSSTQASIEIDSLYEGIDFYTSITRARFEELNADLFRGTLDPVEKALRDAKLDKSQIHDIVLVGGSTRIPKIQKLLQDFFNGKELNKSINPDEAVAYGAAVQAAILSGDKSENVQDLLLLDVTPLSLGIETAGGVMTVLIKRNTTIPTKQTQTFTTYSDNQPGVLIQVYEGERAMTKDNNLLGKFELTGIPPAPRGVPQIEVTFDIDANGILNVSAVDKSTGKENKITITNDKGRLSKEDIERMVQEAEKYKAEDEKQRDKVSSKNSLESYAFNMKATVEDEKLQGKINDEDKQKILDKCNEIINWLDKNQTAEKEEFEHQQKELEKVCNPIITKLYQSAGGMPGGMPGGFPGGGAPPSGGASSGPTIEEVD
UniProt Q14160: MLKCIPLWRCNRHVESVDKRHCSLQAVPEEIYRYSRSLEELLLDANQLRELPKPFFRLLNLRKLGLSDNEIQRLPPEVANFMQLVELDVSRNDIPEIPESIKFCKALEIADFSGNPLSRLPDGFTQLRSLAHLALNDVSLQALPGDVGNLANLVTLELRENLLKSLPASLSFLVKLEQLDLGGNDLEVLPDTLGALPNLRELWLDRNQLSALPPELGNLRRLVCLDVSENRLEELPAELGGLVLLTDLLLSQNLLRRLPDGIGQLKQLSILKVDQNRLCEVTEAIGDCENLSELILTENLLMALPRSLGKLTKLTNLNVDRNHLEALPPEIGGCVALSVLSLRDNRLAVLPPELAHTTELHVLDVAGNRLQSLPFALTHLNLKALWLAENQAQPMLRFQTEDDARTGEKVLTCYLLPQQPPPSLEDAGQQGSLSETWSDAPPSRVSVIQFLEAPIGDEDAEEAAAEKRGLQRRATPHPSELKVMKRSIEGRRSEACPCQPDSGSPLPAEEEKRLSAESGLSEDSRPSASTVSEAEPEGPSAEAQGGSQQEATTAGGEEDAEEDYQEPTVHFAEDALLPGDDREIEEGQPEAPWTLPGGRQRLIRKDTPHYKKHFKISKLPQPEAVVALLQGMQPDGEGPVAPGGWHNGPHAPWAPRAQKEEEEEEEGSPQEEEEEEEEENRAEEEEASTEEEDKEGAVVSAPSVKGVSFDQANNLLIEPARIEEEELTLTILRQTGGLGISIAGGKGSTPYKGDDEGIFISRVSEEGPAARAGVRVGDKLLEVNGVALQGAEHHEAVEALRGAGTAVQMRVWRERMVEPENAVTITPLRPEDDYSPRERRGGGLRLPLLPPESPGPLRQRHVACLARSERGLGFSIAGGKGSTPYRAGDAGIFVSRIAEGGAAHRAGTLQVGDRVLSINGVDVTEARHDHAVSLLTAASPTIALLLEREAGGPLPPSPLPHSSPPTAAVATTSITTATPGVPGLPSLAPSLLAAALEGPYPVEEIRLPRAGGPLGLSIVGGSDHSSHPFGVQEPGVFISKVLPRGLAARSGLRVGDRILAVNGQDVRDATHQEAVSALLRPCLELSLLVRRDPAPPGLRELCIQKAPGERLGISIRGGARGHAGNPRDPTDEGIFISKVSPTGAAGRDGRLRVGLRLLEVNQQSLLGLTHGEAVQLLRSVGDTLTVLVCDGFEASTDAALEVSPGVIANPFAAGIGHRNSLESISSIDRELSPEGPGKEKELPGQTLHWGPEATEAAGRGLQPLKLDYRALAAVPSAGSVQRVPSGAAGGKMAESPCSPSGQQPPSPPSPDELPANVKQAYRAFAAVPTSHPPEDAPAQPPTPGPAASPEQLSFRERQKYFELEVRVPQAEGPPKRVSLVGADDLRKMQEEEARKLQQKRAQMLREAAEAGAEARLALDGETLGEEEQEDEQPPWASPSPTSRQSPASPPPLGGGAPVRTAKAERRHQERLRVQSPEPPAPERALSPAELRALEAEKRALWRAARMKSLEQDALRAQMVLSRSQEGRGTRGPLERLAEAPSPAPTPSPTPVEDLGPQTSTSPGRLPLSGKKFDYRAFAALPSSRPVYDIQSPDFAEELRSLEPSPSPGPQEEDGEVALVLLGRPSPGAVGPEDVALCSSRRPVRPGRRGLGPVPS
UniProt Q13425: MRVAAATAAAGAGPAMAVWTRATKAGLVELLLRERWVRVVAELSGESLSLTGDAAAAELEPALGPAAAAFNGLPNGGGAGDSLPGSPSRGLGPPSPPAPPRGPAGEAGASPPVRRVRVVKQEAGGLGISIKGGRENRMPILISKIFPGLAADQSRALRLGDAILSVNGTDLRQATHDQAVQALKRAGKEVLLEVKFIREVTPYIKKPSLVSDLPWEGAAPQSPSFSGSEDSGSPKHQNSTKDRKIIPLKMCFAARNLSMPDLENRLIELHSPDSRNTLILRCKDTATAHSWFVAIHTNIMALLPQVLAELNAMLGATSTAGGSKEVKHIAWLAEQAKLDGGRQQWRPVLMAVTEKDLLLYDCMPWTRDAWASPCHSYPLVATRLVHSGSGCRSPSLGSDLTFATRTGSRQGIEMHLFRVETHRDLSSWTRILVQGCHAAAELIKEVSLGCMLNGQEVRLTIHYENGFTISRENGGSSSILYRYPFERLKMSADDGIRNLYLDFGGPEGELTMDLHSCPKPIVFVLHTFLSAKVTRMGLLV
UniProt Q13263: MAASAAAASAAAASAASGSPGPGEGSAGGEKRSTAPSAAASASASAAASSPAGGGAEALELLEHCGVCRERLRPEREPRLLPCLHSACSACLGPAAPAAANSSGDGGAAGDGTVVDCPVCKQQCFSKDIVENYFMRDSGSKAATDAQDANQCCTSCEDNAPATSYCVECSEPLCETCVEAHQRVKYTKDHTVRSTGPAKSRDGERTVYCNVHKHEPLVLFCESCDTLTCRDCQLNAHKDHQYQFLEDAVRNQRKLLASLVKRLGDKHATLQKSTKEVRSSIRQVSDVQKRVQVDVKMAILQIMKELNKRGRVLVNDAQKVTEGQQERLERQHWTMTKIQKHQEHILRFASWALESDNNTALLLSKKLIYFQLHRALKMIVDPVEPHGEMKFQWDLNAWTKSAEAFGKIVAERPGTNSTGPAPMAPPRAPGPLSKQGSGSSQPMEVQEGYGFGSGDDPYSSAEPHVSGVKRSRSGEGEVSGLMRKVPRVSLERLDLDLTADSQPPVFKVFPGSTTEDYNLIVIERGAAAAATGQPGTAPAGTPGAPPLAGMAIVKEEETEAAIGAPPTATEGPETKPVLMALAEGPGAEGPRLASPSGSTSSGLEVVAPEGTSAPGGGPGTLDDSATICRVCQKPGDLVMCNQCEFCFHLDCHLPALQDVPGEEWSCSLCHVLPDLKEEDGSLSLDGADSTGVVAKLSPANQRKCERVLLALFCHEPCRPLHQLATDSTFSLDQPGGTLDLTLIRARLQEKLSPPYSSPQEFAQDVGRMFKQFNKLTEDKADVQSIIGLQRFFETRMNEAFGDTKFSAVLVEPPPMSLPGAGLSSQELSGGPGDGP
UniProt P17028: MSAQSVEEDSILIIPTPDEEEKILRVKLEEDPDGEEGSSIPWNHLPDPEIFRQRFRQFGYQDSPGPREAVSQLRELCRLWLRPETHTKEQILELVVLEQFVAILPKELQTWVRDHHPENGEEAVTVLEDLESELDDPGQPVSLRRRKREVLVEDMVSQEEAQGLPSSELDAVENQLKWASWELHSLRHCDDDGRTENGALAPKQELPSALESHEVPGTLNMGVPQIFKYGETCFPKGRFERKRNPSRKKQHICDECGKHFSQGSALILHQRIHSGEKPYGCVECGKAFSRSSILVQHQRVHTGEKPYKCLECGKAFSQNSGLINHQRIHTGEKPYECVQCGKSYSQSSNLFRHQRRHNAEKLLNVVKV

Like-named read-outs stand apart in the source and are kept apart here. Results are given in words; binding and its absence hold for the method and conditions named. Binding seen in cells or lysates may run through a third protein. Here binding means that the protein was enriched with, or labelled near, the bait; the list need not be complete. For some of these results: No binding means not detected with the bait. Sequences can lack the tags named with a protein.

In assay [1] the target is T1, HA-tagged PGBD1 (piggyBac transposable element derived 1) (human) (UniProt Q96JS3).
T1 sequence: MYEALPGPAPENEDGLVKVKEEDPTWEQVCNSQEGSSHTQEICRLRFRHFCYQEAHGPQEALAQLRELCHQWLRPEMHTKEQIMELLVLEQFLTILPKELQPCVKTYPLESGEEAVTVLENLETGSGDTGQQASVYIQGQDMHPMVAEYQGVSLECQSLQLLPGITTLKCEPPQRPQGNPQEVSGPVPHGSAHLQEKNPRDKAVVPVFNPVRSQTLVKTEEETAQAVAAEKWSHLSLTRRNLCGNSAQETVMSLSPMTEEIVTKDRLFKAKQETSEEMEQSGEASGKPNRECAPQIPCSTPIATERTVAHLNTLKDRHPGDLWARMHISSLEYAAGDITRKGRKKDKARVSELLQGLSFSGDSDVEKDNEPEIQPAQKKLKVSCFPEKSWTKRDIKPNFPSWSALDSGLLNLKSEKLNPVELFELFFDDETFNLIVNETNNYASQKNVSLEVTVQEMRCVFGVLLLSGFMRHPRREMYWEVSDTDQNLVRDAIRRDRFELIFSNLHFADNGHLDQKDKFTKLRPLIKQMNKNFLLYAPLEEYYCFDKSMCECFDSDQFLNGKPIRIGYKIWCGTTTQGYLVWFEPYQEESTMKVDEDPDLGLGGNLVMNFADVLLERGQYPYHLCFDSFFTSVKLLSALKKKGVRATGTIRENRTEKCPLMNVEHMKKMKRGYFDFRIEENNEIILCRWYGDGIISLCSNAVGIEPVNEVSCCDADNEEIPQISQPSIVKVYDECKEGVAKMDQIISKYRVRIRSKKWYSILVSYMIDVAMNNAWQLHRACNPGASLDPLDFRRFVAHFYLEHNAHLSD
As to the kind of experiment: affinity purification with mass spectrometry.

Assay [2] addresses T1, HA-tagged PGBD1 (piggyBac transposable element derived 1) (human). As to the kind of experiment: affinity purification with mass spectrometry. This is another data set of the same source.

As to “Dystrophin (DMD) (from UniProt P11532 1-3685)”, in assay [1], the binding entry is reported as “binds”.

Turning to HSPA1A (from UniProt P0DMV8 1-641), the binding entry in assay [1] was “binds”.

On to HSPA4 (from UniProt P34932 1-840), for which the binding entry in assay [1] is listed as “binds”.

Consider HSPA4L (from UniProt O95757 1-839), for which the binding result in assay [1] is given as “binds”.

Consider HSPA5 (from UniProt P11021 19-654), for which the binding result in assay [1] was “binds”.

Take “HSPA8 (HSC70), endogenous in HEK293 (from UniProt P11142 1-646)”: the binding result in assay [1] is given as “binds”.

HSPA9 (from UniProt P38646 47-679): the binding entry in assay [1] is “binds”.

For the molecule HSPH1 (from UniProt Q92598 1-858), in assay [1], the binding entry is given as “binds”.

Take SCRIB (from UniProt Q14160 1-1655): the binding result in assay [1] is “binds”.

As to “Syntrophin beta 2 (SNTB2) (from UniProt Q13425 1-540)”, in assay [1], the binding result was “binds”.

Turning to TRIM28 (from UniProt Q13263 1-835), the binding entry in assay [1] is recorded as “no binding”.

On to “Uthrophin (UTRN) (from UniProt P46939 1-3433)”, for which the binding entry in assay [1] was “binds”.

As to “ZNF24 (Zn-finger protein 24) (from UniProt P17028 1-368)”, the binding result in assay [1] is “binds”.

B1: thioredoxin (TXN), endogenous in HEK293 (protein, UniProt P10599 1-105)
chain: MVKQIESKTAFQEALDAAGDKLVVVDFSATWCGPCKMIKPFFHSLSEKYSNVIFLEVDVDDCQDVASECEVKCMPTFQFFKKGQKVGEFSGANKEKLEATINELV
As for B1, the binding entry in assay [2] was “binds”.

B2: Catenin alpha like 1 (CTNNAL1) (protein, UniProt Q9UBT7 1-734)
chain: MAASPGPAGVGGAGAVYGSGSSGFALDSGLEIKTRSVEQTLLPLVSQITTLINHKDNTKKSDKTLQAIQRVGQAVNLAVGRFVKVGEAIANENWDLKEEINIACIEAKQAGETIAALTDITNLNHLESDGQITIFTDKTGVIKAARLLLSSVTKVLLLADRVVIKQIITSRNKVLATMERLEKVNSFQEFVQIFSQFGNEMVEFAHLSGDRQNDLKDEKKKAKMAAARAVLEKCTMMLLTASKTCLRHPNCESAHKNKEGVFDRMKVALDKVIEIVTDCKPNGETDISSISIFTGIKEFKMNIEALRENLYFQSKENLSVTLEVILERMEDFTDSAYTSHEHRERILELSTQARMELQQLISVWIQAQSKKTKSIAEELELSILKISHSLNELKKELHSTATQLAADLLKYHADHVVLKALKLTGVEGNLEALAEYACKLSEQKEQLVETCRLLRHISGTEPLEITCIHAEETFQVTGQQIISAAETLTLHPSSKIAKENLDVFCEAWESQISDMSTLLREINDVFEGRRGEKYGYLSLPKPMKNNANLKSLKPDKPDSEEQAKIAKLGLKLGLLTSDADCEIEKWEDQENEIVQYGRNMSSMAYSLYLFTRGEGPLKTSQDLIHQLEVFAAEGLKLTSSVQAFSKQLKDDDKLMLLLEINKLIPLCHQLQTVTKTSLQNKVFLKVDKCITKTRSMMALLVQLLSLCYKLLKKLQMENNGWVSVTNKDTMDSKT
As for B2, the binding result in assay [2] is “binds”.

B3: PRDX6 (protein, UniProt P30041 1-224)
chain: MPGGLLLGDVAPNFEANTTVGRIRFHDFLGDSWGILFSHPRDFTPVCTTELGRAAKLAPEFAKRNVKLIALSIDSVEDHLAWSKDINAYNCEEPTEKLPFPIIDDRNRELAILLGMLDPAEKDEKGMPVTARVVFVFGPDKKLKLSILYPATTGRNFDEILRVVISLQLTAEKRVATPVDWKDGDSVMVLPTIPEEEAKKLFPKGVFTKELPSGKKYLRYTPQP
Consider B3, for which, in assay [2], the binding entry is “binds”.

B4: PRDX1 (protein, UniProt Q06830 1-199)
chain: MSSGNAKIGHPAPNFKATAVMPDGQFKDISLSDYKGKYVVFFFYPLDFTFVCPTEIIAFSDRAEEFKKLNCQVIGASVDSHFCHLAWVNTPKKQGGLGPMNIPLVSDPKRTIAQDYGVLKADEGISFRGLFIIDDKGILRQITVNDLPVGRSVDETLRLVQAFQFTDKHGEVCPAGWKPGSDTIKPDVQKSKEYFSKQK
Consider B4, for which the binding result in assay [2] is given as “binds”.

B5: Syntrophin beta 1 (SNTB1) (protein, UniProt Q13884 1-538)
chain: MAVAAAAAAAGPAGAGGGRAQRSGLLEVLVRDRWHKVLVNLSEDALVLSSEEGAAAYNGIGTATNGSFCRGAGAGHPGAGGAQPPDSPAGVRTAFTDLPEQVPESISNQKRGVKVLKQELGGLGISIKGGKENKMPILISKIFKGLAADQTQALYVGDAILSVNGADLRDATHDEAVQALKRAGKEVLLEVKYMREATPYVKKGSPVSEIGWETPPPESPRLGGSTSDPPSSQSFSFHRDRKSIPLKMCYVTRSMALADPENRQLEIHSPDAKHTVILRSKDSATAQAWFSAIHSNVNDLLTRVIAEVREQLGKTGIAGSREIRHLGWLAEKVPGESKKQWKPALVVLTEKDLLIYDSMPRRKEAWFSPVHTYPLLATRLVHSGPGKGSPQAGVDLSFATRTGTRQGIETHLFRAETSRDLSHWTRSIVQGCHNSAELIAEISTACTYKNQECRLTIHYENGFSITTEPQEGAFPKTIIQSPYEKLKMSSDDGIRMLYLDFGGKDGEIQLDLHSCPKPIVFIIHSFLSAKITRLGLVA
In the case of B5, in assay [2], the binding result is “binds”.

B6: PRDX2 (protein, UniProt P32119 1-198)
chain: MASGNARIGKPAPDFKATAVVDGAFKEVKLSDYKGKYVVLFFYPLDFTFVCPTEIIAFSNRAEDFRKLGCEVLGVSVDSQFTHLAWINTPRKEGGLGPLNIPLLADVTRRLSEDYGVLKTDEGIAYRGLFIIDGKGVLRQITVNDLPVGRSVDEALRLVQAFQYTDEHGEVCPAGWKPGSDTIKPNVDDSKEYFSKHN
Regarding B6, in assay [2], the binding result is reported as “binds”.
